PubChem BioAssay AID1159579 – Peter MacCallum Cancer Centre – 2015
Test: 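Find genes whose silencing alters migration of lymphatic endothelial cells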 (follow-up of hits). System: human dermal lymphatic endothelial cells. Knock-down reagent: single siRNA against human genes, 25 nM. Read-out: 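High content images of wound closure area and cell nuclei counts, each the average of two wells, expressed against mock transfection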. Scale: migration relative to mock: higher = more migration into the scratch; mean nuclei count: higher = more cells remaining. Active means: 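a ratio of at most 0.6 or at least 1.3 marks altered migration and an active call; a mean nuclei count under 3300 forces an inactive call regardless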. Calls: active = migration changed (impaired or accelerated); inactive = no migration change, or too few cells.
Shown is an unselected part of about 2,000 reagents tested. 549 of them (27%) were called active. 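Some migration ratios are negative; siRNAs with too few cells are inactive whatever their migration ratio.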 A number with no mark means an inactive call. The numbers tell different reagents against one gene apart. Further read-outs or replicates are left out here. Not stated in the record: the time to read-out.

For CDK13 (cyclin dependent kinase 13) #1, the entry reads migration relative to mock 0.68; mean nuclei count 5296.
Silencing of CDK13 (cyclin dependent kinase 13) #2 gave: migration relative to mock 0.66; mean nuclei count 5242.
Knock-down of CDK13 (cyclin dependent kinase 13) #3 came out at: migration relative to mock 1.16; mean nuclei count 5796.
CDK13 (cyclin dependent kinase 13) #4 scored migration relative to mock 0.88; mean nuclei count 5560.
Depletion of KRT13 (keratin 13) #1 came out at: migration relative to mock 1; mean nuclei count 5294.
Silencing of KRT13 (keratin 13) #2 came out at: migration relative to mock -0.09 (active); mean nuclei count 4998.
For KRT13 (keratin 13) #3, the values are migration relative to mock 1.27; mean nuclei count 5909.
After knock-down of KRT13 (keratin 13) #4, the record shows migration relative to mock 0.74; mean nuclei count 4845.
ATF2 (activating transcription factor 2) #1 showed migration relative to mock 0.85; mean nuclei count 6556.
Knock-down of ATF2 (activating transcription factor 2) #2 resulted in: migration relative to mock 0.72; mean nuclei count 5988.
ATF2 (activating transcription factor 2) #3 showed migration relative to mock 0.73; mean nuclei count 5489.
Against ATF2 (activating transcription factor 2) #4, the entry reads migration relative to mock 0.86; mean nuclei count 6312.
SNRPD1 (small nuclear ribonucleoprotein D1 polypeptide) #1 showed migration relative to mock 1.01; mean nuclei count 5732.
SNRPD1 (small nuclear ribonucleoprotein D1 polypeptide) #2 showed migration relative to mock 0.63; mean nuclei count 5016.
For SNRPD1 (small nuclear ribonucleoprotein D1 polypeptide) #3 the deposit lists migration relative to mock 0.68; mean nuclei count 5452.
After knock-down of SNRPD1 (small nuclear ribonucleoprotein D1 polypeptide) #4, the screen gave migration relative to mock 0.66; mean nuclei count 4432.

In a second layout: entries from further up
target | siRNA no. | migration relative to mock | mean nuclei count
KRT13 (keratin 13) | 3 | 1.27 | 5909
KRT13 (keratin 13) | 4 | 0.74 | 4845
